Data taken from ChEMBL document CHEMBL3988442, “University of Dundee, Small-Polar-MMV Screening Library” (2021).

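Whole-cell assay for inhibitors of Mycobacterium tuberculosis growth, labelled Cornell in the record; the read-out is not stated. The concentration is filed as 10 mM, unlikely as a test dose, so the dose is not known. The record gives no direction; compounds strong in two other growth screens of this library score well above the rest, so higher reads as stronger inhibition. About 53,000 compounds were tested under these conditions; 1.7% (about 900) showed 50% or more at least once.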

Values are the deposited “Percent Effect”, in %.
The record does not define 0% and 100%; most values in the screen are far below 50% and negative numbers occur (in some assays of this library far below -100).
This is an unselected part of the compounds tested.

structure	effect
CC(C)N(Cc1ccccn1)C(=O)CCC(=O)c1ccccc1	-31.17%
Cn1cc(CC2CCN(C(=O)NCCc3cccc(O)c3)C2)cn1 (stereo not shown)	9.063%
COCCNC(=O)c1ccc2c(=O)n3c(nc2c1)CCCCCC3	-25.93%
CN(C)C(=O)N1CCCn2nc(CNC(=O)CCc3ccsc3)cc2C1	21.87%
CCN1CCC(CNC(=O)Nc2cnn(CC(N)=O)c2)C1 (stereo not shown)	5.098%
Cc1nccc(N2CCC(Cc3cccc(C(=O)O)c3)CC2)n1	25.85%
COCC(=O)N1Cc2nccn2CC(CN(C)Cc2cccnc2)C1 (stereo not shown)	24.98%
CS(=O)(=O)c1ccc(O[C@H]2COCCN(Cc3ccncc3)C2)cc1	6.183%
Cc1ccc(CC(=O)NCC(O)c2ccc(Cl)cc2Cl)cn1 (stereo not shown)	14.93%
Cl.Cn1nc(C2CCCN(Cc3cc(F)ccc3F)C2)c2nccnc21 (stereo not shown)	31.53%
CC(C)OCc1ncn2c1CN(Cc1nccs1)CCC2.O=C(O)C(F)(F)F	9.766%
O=C(O)C(F)(F)F.[H][C@@]12C[C@@H](c3nc(C4CC4)cs3)O[C@]1([H])CN(C(=O)c1cccn1C)C2	-0.2662%
CCc1oc(C(=O)N2CCCC(c3nnn[nH]3)C2)cc1C (stereo not shown)	4.674%
CN(C)c1ncnc2c1CCN(C(=O)c1cccnc1)CC2.O=C(O)C(F)(F)F	28.83%
CCC(CNC(=O)Nc1cnn(CC)c1)N1CCCC1 (stereo not shown)	-19.77%
O=C(O)CN1CCC2(CCc3ccccc32)CC1	-6.208%
O=C(O)C(F)(F)F.[H][C@@]12CCN(Cc3ccco3)CC[C@]1([H])[C@H](COCC1CC1)CN(C)C2=O	23.26%
OCC1CCCCN1Cc1nc(Cc2cccc(F)c2)no1 (stereo not shown)	5.529%
CCN(CC)C(=O)Cc1csc(C(C)C)n1	-12.65%
[H][C@@]12CCN(Cc3cccnc3OC)[C@]1([H])CC[C@H](c1nnc(C)o1)O2	28.51%
COc1ncccc1CNCc1c(C(C)C)nn(C)c1Cl	29.75%
CN1CCC2(CCN(Cc3nccs3)CC2)C1=O.O=C(O)C(F)(F)F	17.38%
N#CCCNC(=O)c1ccn(-c2ccc3ccccn23)n1	39.75%
CC(C)NC(=O)N1Cc2nccn2CC(COc2cccnc2)C1.O=C(O)C(F)(F)F (stereo not shown)	-22.97%
CS(=O)(=O)N1CC(c2nc[nH]n2)c2cc(C(=O)NC3CCCC3)ccc21 (stereo not shown)	20.24%
O=c1oc(-c2cccs2)nn1CC(O)c1ccc(F)cc1 (stereo not shown)	35.67%
Cc1ccoc1C(=O)N1CC[C@@]2(C[C@H](NS(C)(=O)=O)CCO2)C1	15.56%
Cc1cc(=O)n(CC(=O)Nc2cccc(Cl)c2)nc1C	4.003%
CCN1CCOC(CNCc2cnc(N(CC)CC)s2)C1 (stereo not shown)	28.58%
CC[C@@H](C)[C@H](NC(=O)NC1CCS(=O)(=O)C1)C(=O)NCc1ccncc1 (stereo partly shown)	-12.52%
Cc1nc(C2CCCN2C(=O)CNS(C)(=O)=O)no1 (stereo not shown)	18.48%
CS(=O)(=O)NCCN1CCSCC1c1ccc(Cl)cc1 (stereo not shown)	6.032%
CNC(=O)C1(N(C)CCc2ccccc2)Cc2ccccc2C1	-8.795%
Cc1nnc2n1CCN(C(=O)c1cc(C)n(-c3cccnc3)c1C)C2	-13.29%
CCc1nnc2n1CCN(CCS(=O)(=O)c1ccccc1)C2	-22.57%
Cc1ccc(NC(=O)c2cc3c(=O)n(C)c(=O)n(C)c3nc2C)cc1Cl	-14.17%
Cc1cc(C)n(CC(=O)N2CCCCC2CCN(C)C)c(=O)n1 (stereo not shown)	19.58%
CCC(C)Oc1ccc(CNCCc2c[nH]cn2)cc1Cl (stereo not shown)	8.086%
Cc1noc(C)c1-c1cccc(C2CN(S(=O)(=O)N(C)C)CCO2)n1 (stereo not shown)	37.24%
OCCN1CCCC(c2cccc(-c3ccccc3F)n2)C1 (stereo not shown)	-3.425%
CN(Cc1ccc2nonc2c1)C(=O)c1ccc(C2CCCO2)s1 (stereo not shown)	2.274%
Cc1ccc2oc(C(=O)N3CCCC(n4nc(C)cc4C)C3)cc2n1 (stereo not shown)	3.777%
Cn1ncc2c(=O)[nH]c(CN3CCCC3Cc3ccc(F)cc3)nc21 (stereo not shown)	1.268%
CCCc1nnsc1C(=O)N1CCN(CC(C)O)CC1.Cl (stereo not shown)	21.89%
Cn1cc(CN(CC2(O)CCNC2)C2CCCCC2)cn1 (stereo not shown)	-32.39%
c1ccc(COCC2CNCc3nccn3C2)nc1 (stereo not shown)	-5.745%
[H][C@]12CCC[C@@]1(CO)CN(C(=O)c1cc(C)nc3cc(F)ccc13)C2	18.26%
COCc1ccc(C(=O)N2CCC(c3nccn3CC3CC3)CC2)o1	7.74%
CSc1nnc(CC2CCN(C(=O)Cc3ccncc3)CC2)n1C	-15.7%
CCc1noc(CN(Cc2ccc3c(c2)OCO3)C2CCCC2)n1	1.573%
COCC1CC2(CCN(C(=O)c3cncc(C)c3)CC2)CO1.O=C(O)C(F)(F)F (stereo not shown)	-13.63%
CCn1c(CN2CCCC(Cn3cncn3)C2)nc2c(F)cccc21 (stereo not shown)	26.57%
CC(=O)N[C@@H]1CN(C(=O)c2cc3sccc3[nH]2)C[C@H]1c1ccc(C)o1	21.9%
CCNC(c1cccnc1)c1ccc(F)c(C)c1 (stereo not shown)	-53.96%
Cc1noc(C)c1C(=O)NCCN1CCN(c2ccccc2)CC1	5.637%
Cc1cccc(-c2noc(CNC(C)Cn3cc(C)cn3)n2)c1 (stereo not shown)	41.92%
Cn1cc(CN2CCC(Cn3cc(-c4ccccc4)nn3)CC2)cn1	-8.464%
O=C(O)C(F)(F)F.[H][C@]12CCN(c3ccccn3)[C@@]1([H])CC[C@@H](COCc1csc(C)n1)O2	15.43%
OCCCN(CCc1cccc(F)c1)C1CC1	5.151%
O=C(c1cccc(Cn2ccnc2)c1)N1CCCC(n2ccnc2)C1 (stereo not shown)	20.81%
CCc1nc(CN(C)C2CCN(CC(=O)N3CCOCC3)C2)no1 (stereo not shown)	-9.071%
COc1cc2c(cc1OC)C(=O)C(Sc1nncn1C)C2 (stereo not shown)	10.33%
Cc1ccccc1[C@@H]1CN(Cc2c(C)noc2C)C[C@H]1C(=O)O	-26.48%
CC(C)CCN1CCN(c2ncnc3nc(N)ccc23)CC1	21.32%
CN1CCNC(=O)C12CCN(Cc1ccco1)CC2.O=C(O)C(F)(F)F.O=C(O)C(F)(F)F	-27.79%
CC(=O)NC1CCCN(Cc2ccc(-n3ccnc3)cc2)C1 (stereo not shown)	10.71%
CC(=O)N1CCN(C(=O)c2[nH]nnc2Nc2ccccc2F)CC1	4.876%
O=C(O)C(F)(F)F.O=C(O)C(F)(F)F.[H][C@@]12CCN(Cc3cccc(C#N)c3)C[C@]1([H])[C@@H](CN(C)C(C)C)OC2	-31.53%
NCCn1cc(C(=O)N2CCCCCC2c2cccc(F)c2)nn1 (stereo not shown)	-4.046%
COc1ccc(CNCC2CCN(CC(C)O)CC2)c2ccccc12 (stereo not shown)	0.9996%
CCOC(CC)C(=O)NCCC(=O)N1CCN(c2ncccn2)CC1 (stereo not shown)	2.504%
CCN1Cc2ccccc2CC2(CCN(CC(=O)O)CC2)C1=O.O=C(O)C(F)(F)F	-14.97%
CC(C)c1nc(CC(=O)N2CCCC(n3cncn3)C2)cs1 (stereo not shown)	5.546%
N#Cc1cccnc1N1CCCC(CO)(CCOc2ccccc2)C1 (stereo not shown)	-10.05%
Cc1nc2c(c(NC(C)C)n1)CCN(C(=O)c1cc[nH]n1)CC2.O=C(O)C(F)(F)F	24.73%

The last 4 entries again:

structure	effect
CCN1Cc2ccccc2CC2(CCN(CC(=O)O)CC2)C1=O.O=C(O)C(F)(F)F	-14.97%
CC(C)c1nc(CC(=O)N2CCCC(n3cncn3)C2)cs1 (stereo not shown)	5.546%
N#Cc1cccnc1N1CCCC(CO)(CCOc2ccccc2)C1 (stereo not shown)	-10.05%
Cc1nc2c(c(NC(C)C)n1)CCN(C(=O)c1cc[nH]n1)CC2.O=C(O)C(F)(F)F	24.73%